These are yes or no findings as the source states them, for the method shown. Binding seen in cells or lysates may run through a third protein. A yes stands for co-enrichment or nearness to the bait. Other partners may have been found.

Protein sequences, listed by entry. Tags and fused reporters are not part of them. Lines headed by an entry give the natural chain unless they say otherwise; changes in a name come on top.
UniProt C8V7D1: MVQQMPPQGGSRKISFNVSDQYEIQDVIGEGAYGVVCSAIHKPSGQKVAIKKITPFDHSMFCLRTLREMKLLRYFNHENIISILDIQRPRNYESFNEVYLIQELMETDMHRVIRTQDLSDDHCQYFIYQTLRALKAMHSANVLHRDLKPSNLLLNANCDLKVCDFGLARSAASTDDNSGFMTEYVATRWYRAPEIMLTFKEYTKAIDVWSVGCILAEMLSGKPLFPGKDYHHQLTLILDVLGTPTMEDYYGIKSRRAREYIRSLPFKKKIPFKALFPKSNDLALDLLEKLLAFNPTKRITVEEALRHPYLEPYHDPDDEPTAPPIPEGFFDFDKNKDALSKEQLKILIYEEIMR

From paper PMC6224500 come the findings set out here.

The target of this test is MpkB (MAPK of the pheromone module) (Aspergillus nidulans) (UniProt C8V7D1). Kind of test: affinity purification with mass spectrometry; Tandem Affinity Purification of TAP-tagged bait expressed under its native promoter in A. nidulans, vegetative cultures grown for 24 hours, LC-MS of co-purified proteins; 2 biological replicates; wild type background and hamE deletion background.

B1: SteA transcription factor (protein, UniProt O74252 1-692)
chain: MYSQHGAPMAPPQKPETFMLSNEAQQSLPHDAQVALQQVDNLKYFLLSAPVDWQPDQLIRRFLLPTGDYISCVLWSNLFHISGTDIVRCLAFRFQAFGRPVKNSKKFEEGIFSDLRNLKAGTDATLEEPKSPFLDFLYKNNCIRTQKKQKVFYWYSVPHDRLFLDALERDLKREKMGQEATTVAVSEPALSFEFDSSQSLYEQLTKAQQANSSSFAAHASTTYGQSASPVVRTVDAMPPPQMAPQMAPPSIPLLTDESANSQMYTSIPMPNPIPQNLIKREADYGAIQYDRNGMPIARIHQRHSSMPTFVEYSPAPSFVSSQYEDYSNRGLSFEPVTPPQHSSHIGPEPAYIANEDTGLYTAIPEMSTGSGFNPMMHLPPSNLASAHFPTPARTFHSNVYSVLEGSPTYKQRRRRSSIPPGAANPVTTGTHSPAPALSYAAHKPSDLRRSVSSSVAPGDTDDSRHESLHRSVNSTYTATLPQKNLMHEMSRNGTPLSSVGEHREQSSIPLTQAEDLPALPANGTVESGAPNGVGHKSDRYATGPVRRARSATMMELGPYPQKSHSCPIPSCGRLFKRLEHLKRHVRTHTQERPYPCPYCNKAFSRSDNLAQHRRIHEAQQDGQPLVHEDDLENDDNESVSHDEDESPSESVHPAVPGVHGMTSMPSSVALQSTMGSMMGSHMIAPQLLQQQI
Take B1: the binding result is “binds”.
